PubChem BioAssay AID1671195, Yale University, 2021
In all, the deposit lists about 22,000 reagents; shown is a part drawn at random. In the full data, about 1,510 (6.9%) were called active. 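Active includes knockdowns raising or lowering LDL uptake; positive z-scores mean more uptake, negative mean less.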 No sequences are given here.

Assay: 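Genes whose knockdown alters LDL uptake in liver cancer cells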 (primary screen)
Cell system: human Huh7 hepatoma cells
Knock-down reagent: siRNA pool against human genes, 18 nM
Duration: about 2 to 2.5 days of knockdown, then 8 h LDL uptake
Conditions: DiI-labelled LDL at 30 µg/ml for 8 h, in lipoprotein-deficient serum medium
Detection: 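Fluorescent LDL signal imaged in cells, scaled to the plate median, robust z-score for each replicate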
Scale: robust z-score: higher = more LDL uptake after knockdown
Hit rule: 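Active when two or more replicates show a robust z-score above 2 or below -2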

UBTD1 (GeneID 80019) gave robust z-score, replicate 1 = -0.652; robust z-score, replicate 2 = -0.685; robust z-score, replicate 3 = -0.255; inactive.
Knock-down of GZMB (GeneID 3002) gave: robust z-score, replicate 1 = -0.493; robust z-score, replicate 2 = -0.852; robust z-score, replicate 3 = -0.973; inactive.
Silencing of SPMIP8 (GeneID 374739) gave: robust z-score, replicate 1 = -1.13; robust z-score, replicate 2 = -0.835; robust z-score, replicate 3 = -0.895; inactive.
With knock-down of WDR11 (GeneID 55717) the results were robust z-score, replicate 1 = 1.91; robust z-score, replicate 2 = 2.74; robust z-score, replicate 3 = 0.612; inactive.
With knock-down of FAM131B (GeneID 9715), the record shows robust z-score, replicate 1 = -0.69; robust z-score, replicate 2 = 0.36; robust z-score, replicate 3 = -0.333; inactive.
After knock-down of CDHR1 (GeneID 92211) the results were robust z-score, replicate 1 = 1.27; robust z-score, replicate 2 = 1.27; robust z-score, replicate 3 = 1.1; inactive.
Knock-down of CCND1 (GeneID 595) resulted in: robust z-score, replicate 1 = 1.49; robust z-score, replicate 2 = 0.404; robust z-score, replicate 3 = 0.409; inactive.
Knock-down of KIT (GeneID 3815) gave: robust z-score, replicate 1 = -0.517; robust z-score, replicate 2 = -1.11; robust z-score, replicate 3 = -0.713; inactive.
VKORC1 (GeneID 79001) scored robust z-score, replicate 1 = -0.0465; robust z-score, replicate 2 = -0.261; robust z-score, replicate 3 = -0.743; inactive.
After knock-down of ALG2 (GeneID 85365), the screen gave robust z-score, replicate 1 = -1.13; robust z-score, replicate 2 = -0.406; robust z-score, replicate 3 = -1.03; inactive.
RUNDC1 (GeneID 146923) gave robust z-score, replicate 1 = -0.0011; robust z-score, replicate 2 = 1.21; robust z-score, replicate 3 = -0.308; inactive.
After knock-down of CLPSL2 (GeneID 389383), the record shows robust z-score, replicate 1 = -0.543; robust z-score, replicate 2 = -0.408; robust z-score, replicate 3 = -0.0147; inactive.
HOXC13 (GeneID 3229) showed robust z-score, replicate 1 = 2.81; robust z-score, replicate 2 = 0.886; robust z-score, replicate 3 = 1.35; inactive.
WWOX (GeneID 51741) gave robust z-score, replicate 1 = -0.0689; robust z-score, replicate 2 = -0.119; robust z-score, replicate 3 = 0.328; inactive.
GALK2 (GeneID 2585) scored robust z-score, replicate 1 = -0.691; robust z-score, replicate 2 = -0.911; robust z-score, replicate 3 = -1.23; inactive.

Only “robust z-score, replicate 3”, for 2 of the entries above:
WWOX (GeneID 51741) = 0.328
GALK2 (GeneID 2585) = -1.23

The listing continues.
Knock-down of KMT2B (GeneID 9757) came out at: robust z-score, replicate 1 = 1.64; robust z-score, replicate 2 = 1.57; robust z-score, replicate 3 = 1.13; inactive.
Against IQCN (GeneID 80726) the deposit lists robust z-score, replicate 1 = -0.15; robust z-score, replicate 2 = -0.156; robust z-score, replicate 3 = -0.358; inactive.
RPL21P62 (GeneID 442160) showed robust z-score, replicate 1 = -0.427; robust z-score, replicate 2 = -0.0481; robust z-score, replicate 3 = -0.123; inactive.
After knock-down of SLC5A6 (GeneID 8884) the results were robust z-score, replicate 1 = 0.0915; robust z-score, replicate 2 = 0.702; robust z-score, replicate 3 = 0.757; inactive.
SF3A3 (GeneID 10946) scored robust z-score, replicate 1 = 0.397; robust z-score, replicate 2 = 0.639; robust z-score, replicate 3 = 0.854; inactive.
Silencing of CCR5 (GeneID 1234) gave: robust z-score, replicate 1 = 1.07; robust z-score, replicate 2 = 0.596; robust z-score, replicate 3 = 1.35; inactive.
Silencing of LRP5L (GeneID 91355) resulted in: robust z-score, replicate 1 = 0.207; robust z-score, replicate 2 = 0.796; robust z-score, replicate 3 = 0.995; inactive.
COL6A2 (GeneID 1292) scored robust z-score, replicate 1 = -0.809; robust z-score, replicate 2 = -1.05; robust z-score, replicate 3 = -0.124; inactive.
With knock-down of LIN7C (GeneID 55327) the results were robust z-score, replicate 1 = -0.694; robust z-score, replicate 2 = -0.598; robust z-score, replicate 3 = -0.28; inactive.
With knock-down of PRR30 (GeneID 339779), the record shows robust z-score, replicate 1 = -0.558; robust z-score, replicate 2 = -0.36; robust z-score, replicate 3 = -0.607; inactive.
With knock-down of FAM169A (GeneID 26049) the results were robust z-score, replicate 1 = -1.05; robust z-score, replicate 2 = -0.145; robust z-score, replicate 3 = 0.828; inactive.
Silencing of KLF3 (GeneID 51274) gave: robust z-score, replicate 1 = 0.488; robust z-score, replicate 2 = 0.0701; robust z-score, replicate 3 = 0.0788; inactive.
CDH13 (GeneID 1012) scored robust z-score, replicate 1 = 4.54; robust z-score, replicate 2 = 3.61; robust z-score, replicate 3 = 6.35; active.
For LOC440298 (retired record) (GeneID 440298) the deposit lists robust z-score, replicate 1 = 1.14; robust z-score, replicate 2 = 1.35; robust z-score, replicate 3 = 0.855; inactive.
TRIM62 (GeneID 55223) scored robust z-score, replicate 1 = -0.95; robust z-score, replicate 2 = 0.252; robust z-score, replicate 3 = 0.134; inactive.
